This is an account of results in publication doi:10.1101/2023.12.09.570886.

The chains behind the UniProt entries cited, without tags or fusion partners.
UniProt O00161: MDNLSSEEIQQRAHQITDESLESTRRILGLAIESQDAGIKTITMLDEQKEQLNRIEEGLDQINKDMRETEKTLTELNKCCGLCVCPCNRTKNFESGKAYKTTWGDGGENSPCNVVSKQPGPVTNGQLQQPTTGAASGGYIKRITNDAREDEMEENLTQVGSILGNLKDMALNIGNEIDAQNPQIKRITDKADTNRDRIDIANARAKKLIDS
UniProt P46940: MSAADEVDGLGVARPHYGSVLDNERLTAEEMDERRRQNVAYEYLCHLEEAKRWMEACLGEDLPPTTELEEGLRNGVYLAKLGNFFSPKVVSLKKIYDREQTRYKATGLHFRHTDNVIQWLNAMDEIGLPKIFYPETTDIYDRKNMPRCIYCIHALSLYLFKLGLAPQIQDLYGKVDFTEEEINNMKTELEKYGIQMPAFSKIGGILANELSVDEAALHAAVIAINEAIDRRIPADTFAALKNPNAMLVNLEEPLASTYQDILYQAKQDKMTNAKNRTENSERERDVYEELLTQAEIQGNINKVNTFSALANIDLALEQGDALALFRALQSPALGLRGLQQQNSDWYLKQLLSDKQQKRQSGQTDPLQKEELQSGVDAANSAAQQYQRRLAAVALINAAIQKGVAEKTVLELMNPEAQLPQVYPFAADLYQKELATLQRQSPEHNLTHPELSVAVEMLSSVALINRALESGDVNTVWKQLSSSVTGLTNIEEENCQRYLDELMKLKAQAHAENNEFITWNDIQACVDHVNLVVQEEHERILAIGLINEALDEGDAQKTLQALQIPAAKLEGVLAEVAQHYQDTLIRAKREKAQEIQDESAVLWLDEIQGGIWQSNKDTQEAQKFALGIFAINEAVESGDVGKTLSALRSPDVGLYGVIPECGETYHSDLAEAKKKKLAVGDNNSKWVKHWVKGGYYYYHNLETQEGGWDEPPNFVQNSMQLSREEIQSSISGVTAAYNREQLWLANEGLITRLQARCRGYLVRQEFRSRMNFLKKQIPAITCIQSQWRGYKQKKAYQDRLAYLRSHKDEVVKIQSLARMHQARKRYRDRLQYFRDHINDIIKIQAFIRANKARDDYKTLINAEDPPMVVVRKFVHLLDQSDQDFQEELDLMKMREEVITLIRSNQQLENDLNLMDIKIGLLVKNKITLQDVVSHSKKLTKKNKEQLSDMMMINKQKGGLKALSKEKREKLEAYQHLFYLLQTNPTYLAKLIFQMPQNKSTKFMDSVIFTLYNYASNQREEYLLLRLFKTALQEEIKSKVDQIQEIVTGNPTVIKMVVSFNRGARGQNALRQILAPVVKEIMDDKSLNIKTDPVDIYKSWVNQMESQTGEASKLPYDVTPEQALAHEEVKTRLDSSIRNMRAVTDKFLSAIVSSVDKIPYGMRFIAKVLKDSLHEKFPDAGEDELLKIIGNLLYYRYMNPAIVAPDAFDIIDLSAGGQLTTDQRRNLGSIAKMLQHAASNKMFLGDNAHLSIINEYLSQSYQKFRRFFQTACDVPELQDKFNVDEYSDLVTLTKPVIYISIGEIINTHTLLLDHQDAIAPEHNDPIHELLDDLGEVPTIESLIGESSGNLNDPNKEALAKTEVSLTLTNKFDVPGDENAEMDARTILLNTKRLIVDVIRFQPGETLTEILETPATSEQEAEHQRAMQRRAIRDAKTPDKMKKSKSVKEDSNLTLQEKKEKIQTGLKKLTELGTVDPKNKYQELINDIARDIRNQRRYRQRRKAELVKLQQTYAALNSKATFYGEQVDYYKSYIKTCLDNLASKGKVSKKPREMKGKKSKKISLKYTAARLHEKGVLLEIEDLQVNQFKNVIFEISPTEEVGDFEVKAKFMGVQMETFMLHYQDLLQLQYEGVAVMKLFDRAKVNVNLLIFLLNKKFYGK

Results are given in words; binding and its absence hold for the method and conditions named. In cells and extracts the contact can be indirect. These calls come from enrichment with a bait or labelling near it, and not all partners need be listed. For some assays here: No binding means not detected with the bait.

For assay [1], the target named is t-SNARE protein SNAP-23 (human (endogenous in CFBE41o-6.2 and CFBE41o)) (UniProt O00161). The assay can be described thus: condition: only in ΔF508-CFTR CF HBE cells.
Assay [2] shares this target. The assay can be described thus: affinity purification with mass spectrometry.

In the case of “Ras GTPase-activating-like protein IQGAP1 (from UniProt P46940 1-1657)”, the binding result in assay [1] is on record as “no binding”; in assay [2] it was “binds”.
